Measured data: PubChem BioAssay AID1259405 (NCATS, 2018)
Screen: 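Knock-downs that lift recombinant protein yield in hamster ovary cells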 (primary screen). Cells: Chinese hamster CHO-K1 ovary cells with stable secreted eGFP expression. Knock-down reagent: single siRNA against mouse genes, 0.8 pmol siRNA per well (2 µl of 400 nM stock). Timing: 3 days. Measurement: 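Percent of the per-plate non-targeting control median for intracellular GFP per well by laser scanning cytometry and for cell viability by ATP luminescence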. Scale: GFP, % of control: higher = more GFP per well, higher productivity; viability (ATP), % of control: higher = more viable cells (more ATP). Rule for the call: 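Called active when intracellular GFP, relative to negative control, is at or above 120%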.
This is an unselected part of about 50,000 deposited reagents. About 4,000 of all reagents (8%) count as active. 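Mouse siRNA library applied to hamster cells; one well for each siRNA.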 The numbers tell different reagents against one gene apart. No sequences are given here.

The opening 3 records as a preview:
| target | reagent | GFP, % of control | viability (ATP), % of control | Call |
| --- | --- | --- | --- | --- |
| Ccl25 | 1 | 78.5 | 76.3 | inactive |
| Ccl25 | 2 | 61.2 | 88.1 | inactive |
| Tlr11 | 1 | 121 | 92 | active |

Results, from the start:
| target | reagent | GFP, % of control | viability (ATP), % of control | Call |
| --- | --- | --- | --- | --- |
| Ccl25 | 1 | 78.5 | 76.3 | inactive |
| Ccl25 | 2 | 61.2 | 88.1 | inactive |
| Tlr11 | 1 | 121 | 92 | active |
| Tlr11 | 2 | 57.9 | 61.4 | inactive |
| Tlr11 | 3 | 73.4 | 65.7 | inactive |
| Dnaaf9 | 1 | 59.7 | 56.6 | inactive |
| Dnaaf9 | 2 | 61.7 | 48.4 | inactive |
| Dnaaf9 | 3 | 94.3 | 99.2 | inactive |
| Or10q1b | 1 | 113 | 52.6 | inactive |
| Or10q1b | 2 | 77.1 | 80.6 | inactive |
| Or10q1b | 3 | 66.3 | 106 | inactive |
| Aff4 | 1 | 160 | 107 | active |
| Aff4 | 2 | 69.8 | 78.3 | inactive |
| Aff4 | 3 | 78 | 80.8 | inactive |
| Erlin1 | 1 | 64.4 | 66 | inactive |
| Erlin1 | 2 | 68.8 | 69.5 | inactive |
| Erlin1 | 3 | 94.8 | 82 | inactive |
| Rcvrn | 1 | 70.7 | 74.8 | inactive |
| Rcvrn | 2 | 110 | 91.2 | inactive |
| Rcvrn | 3 | 76.1 | 40.2 | inactive |
| Apobec3 | 1 | 58.3 | 62.3 | inactive |
| Apobec3 | 2 | 64.9 | 88.3 | inactive |
| Apobec3 | 3 | 79.8 | 109 | inactive |
| Semg1 | 1 | 81.3 | 67.9 | inactive |
| Semg1 | 2 | 76 | 90 | inactive |
| Semg1 | 3 | 82.4 | 124 | inactive |
| Cyp4b1 | 1 | 108 | 106 | inactive |
| Cyp4b1 | 2 | 78.4 | 68.4 | inactive |
| Cyp4b1 | 3 | 105 | 90.5 | inactive |
| Zfp750 | 1 | 60.7 | 71.5 | inactive |
| Zfp750 | 2 | 35.9 | 24.8 | inactive |
| Zfp750 | 3 | 88.1 | 78.9 | inactive |
| Pdlim5 | 1 | 65.2 | 65.9 | inactive |
| Pdlim5 | 2 | 66.4 | 84.2 | inactive |
| Pdlim5 | 3 | 108 | 62.4 | inactive |
| D5Ertd579e | 1 | 91.3 | 92.7 | inactive |
| D5Ertd579e | 2 | 82.5 | 98.2 | inactive |
| D5Ertd579e | 3 | 101 | 101 | inactive |
| L1cam | 1 | 55.1 | 52.7 | inactive |
| L1cam | 2 | 96.2 | 94.1 | inactive |
| Adam11 | 1 | 144 | 106 | active |
| Adam11 | 2 | 71.9 | 75.9 | inactive |
| Adam11 | 3 | 119 | 94.8 | inactive |
| Mis18bp1 | 1 | 82 | 106 | inactive |
| Mis18bp1 | 2 | 66.8 | 89.2 | inactive |
| Mis18bp1 | 3 | 87.3 | 105 | inactive |
| Cul4a | 1 | 73.1 | 86.5 | inactive |
| Cul4a | 2 | 52.3 | 74.4 | inactive |
| Cul4a | 3 | 66.3 | 98.6 | inactive |
| Mcf2 | 1 | 129 | 86.2 | active |
| Mcf2 | 2 | 38.4 | 57.2 | inactive |
| Mcf2 | 3 | 88.1 | 70.5 | inactive |
| Pls3 | 1 | 65.4 | 61 | inactive |
| Pls3 | 2 | 89.9 | 86.7 | inactive |
| Cd3d | 1 | 101 | 81.8 | inactive |
| Cd3d | 2 | 67.6 | 62.1 | inactive |
| Cd3d | 3 | 83 | 64.4 | inactive |
